The other results are listed elsewhere or left out.
What follows are sequences tested against OsWRKY34 (Oryza sativa, UniProt Q0JBA9 1-250) (assay: protein-binding microarray (RPBM); PBS, 2% BSA, 51.3 ng/ul salmon testes DNA, 50 uM zinc acetate, 200 nM TF, 25 C, 1 h; high values mean tight binding). Settings: protein: recombinant; tags: N-terminal polyhistidine and DsRed monomer fusion (pET32a); label: CyDye5-dUTP incorporated in the synthesized complementary strand; 3' TTTTT single-stranded linker to array surface; dsDNA, one strand shown.
Method in brief: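 The binding signal for each feature is its fluorescence intensity in arbitrary units. An Axon 4000B scanner was used to read a custom Agilent array that had been made double-stranded with Cy5-dUTP primer extension, blocked with 2% BSA, incubated at 25 °C for 1 h with 200 nM protein in PBS, 2% BSA, salmon testes DNA and 50 µM zinc acetate, and washed. The protein was an N-terminal polyhistidine–DsRed transcription factor fusion from E. coli BL21-CodonPlus, purified on Ni–NTA.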

Chains of the proteins cited; added tags and fusions are not shown.
UniProt Q0JBA9, entry or part of it: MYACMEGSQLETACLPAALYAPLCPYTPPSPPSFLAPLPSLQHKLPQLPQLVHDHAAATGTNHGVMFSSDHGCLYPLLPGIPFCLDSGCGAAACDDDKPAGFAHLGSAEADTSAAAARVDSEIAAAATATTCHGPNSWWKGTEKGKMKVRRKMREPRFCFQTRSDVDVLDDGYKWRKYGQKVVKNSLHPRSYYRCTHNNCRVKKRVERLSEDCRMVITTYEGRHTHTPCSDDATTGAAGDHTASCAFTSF

In order of rising binding signal:
1. TTTCAATTGTCTTCAGAATGTGCTCTTTAAACTTAATTTTCGGAGTCACCTAGTGCAG  8030 fluorescence intensity (a.u.)
2. TTGGTTTGGTTCAGGTGAGAGAGGTCAACAATAGCTGTTGCGGAGTCACCTAGTGCAG  8040 fluorescence intensity (a.u.)
3. GCGACATTCTCTCCGACGAAATACGGCTTCCGCCCAATCCCGGAGTCACCTAGTGCAG  8050 fluorescence intensity (a.u.)
4. CAGTGGGTGTATTTGGTCCGCCTTGTGCTGTCGTCGTCGACGGAGTCACCTAGTGCAG  8080 fluorescence intensity (a.u.)
5. CACGCTTCGTCGTCGGATCGGGACGCCTTGCTGCCTCTGCCGGAGTCACCTAGTGCAG  8170 fluorescence intensity (a.u.)
6. CAGTTCTTTTCATCCTTTTCCAAGGCGCGCGCGCGGTCACCGGAGTCACCTAGTGCAG  8200 fluorescence intensity (a.u.)
7. TATTCTGAAGTCACTCGTACATTGCAAAGCACACTACTCCCGGAGTCACCTAGTGCAG  8240 fluorescence intensity (a.u.)
8. CGCACACCACCGCCTACGTAGTAGCTCTGATCGGCGCTGTCGGAGTCACCTAGTGCAG  8250 fluorescence intensity (a.u.)
9. CAGTAGGCAGGTTAGGTCAGGTCAGGTACGGACGCATCCCCGGAGTCACCTAGTGCAG  8250 fluorescence intensity (a.u.)
10. TTCTGTATTCAAACACCACCTTACAACTGTTGGAGTGCTGCGGAGTCACCTAGTGCAG  8310 fluorescence intensity (a.u.)
11. GTCGTTTCTCTCTACCACGTGTACAGCAGCAGGTCAGCTGCGGAGTCACCTAGTGCAG  8330 fluorescence intensity (a.u.)
12. ATTTGGTTTTATATGTTTGTGGAGTGATATATTTCGTATTCGGAGTCACCTAGTGCAG  8350 fluorescence intensity (a.u.)
13. CCAAGGCTGTGTATTAATTAGCAACATTTTTTTTTCTTCTCGGAGTCACCTAGTGCAG  8370 fluorescence intensity (a.u.)
14. TGATGCTCTGATGACCTCCTGGCTAGCTTCTACACACACTCGGAGTCACCTAGTGCAG  8450 fluorescence intensity (a.u.)
15. GCTATATGGAGTGTTAGCTGATGAGTAATGAATGTACAAACGGAGTCACCTAGTGCAG  8450 fluorescence intensity (a.u.)
16. AGTATCCAATTACACGGTGTAAAGCTCGCTACAGTTCGATCGGAGTCACCTAGTGCAG  8480 fluorescence intensity (a.u.)
17. CCCAGCTAGTTATTCTTCATTTAATATATAATCGATCACTCGGAGTCACCTAGTGCAG  8500 fluorescence intensity (a.u.)
18. GATCCAAACGCGAGGTTTTCGGACAGCTGTCGTCACTCCTCGGAGTCACCTAGTGCAG  8520 fluorescence intensity (a.u.)
19. GCCATGAAGCAACCACGACCGCGACTATTCAACTCTCCAACGGAGTCACCTAGTGCAG  8530 fluorescence intensity (a.u.)
20. CGGAGGTCTTGGCGACCACCTCTCGCCACCTTCGCCTCCACGGAGTCACCTAGTGCAG  8560 fluorescence intensity (a.u.)
21. TATTGTACCCCAATTTACAAATGTCCCGCATTTCTATTAACGGAGTCACCTAGTGCAG  8620 fluorescence intensity (a.u.)
22. TCCACTTCCAACATCTACTATCTTTTCTCACGCTTTTTCCCGGAGTCACCTAGTGCAG  8630 fluorescence intensity (a.u.)
23. TTCATTTTTACTAAAATTTTAACAGTCTTCTGAATTTTCTCGGAGTCACCTAGTGCAG  8660 fluorescence intensity (a.u.)
24. GGCCCCATGTACCTTTTTTTAAACAAATTTGCTGACTAGGCGGAGTCACCTAGTGCAG  8760 fluorescence intensity (a.u.)
25. CACTTCCACGACCATTCTCCTGGGGCTTTCCATCATGAAGCGGAGTCACCTAGTGCAG  8870 fluorescence intensity (a.u.)
26. CACCACTCACGCTGTTGGCACAATCTCCTCCGGCGTTGTCCGGAGTCACCTAGTGCAG  8970 fluorescence intensity (a.u.)
27. ATTCTTCACTACAATTTTACATTTTGCCTCTGTATTGGTACGGAGTCACCTAGTGCAG  9020 fluorescence intensity (a.u.)
28. GGGTGCTCTCGATTATTTTCCCCGTCAGTTGACAGGCAGACGGAGTCACCTAGTGCAG  9030 fluorescence intensity (a.u.)
29. TTGCAGCTTGTACACGCAACATCTAGTTGTATTGTTGGGTCGGAGTCACCTAGTGCAG  9090 fluorescence intensity (a.u.)
30. ACGGGTTAGATCTATTTTCGCAAAACTTGCCATGGATGTACGGAGTCACCTAGTGCAG  9120 fluorescence intensity (a.u.)
31. CGGCACCACCACGCCGCTCTTCTCACTCAGGTCCCGCATGCGGAGTCACCTAGTGCAG  9210 fluorescence intensity (a.u.)
32. CGCCAATCCAGCTTTTCTTCTCCCTGCACTCACACACATCCGGAGTCACCTAGTGCAG  9530 fluorescence intensity (a.u.)
33. GTATGCCAACATGTGCTAATTTCTCCGACGAAATGTTTCACGGAGTCACCTAGTGCAG  9660 fluorescence intensity (a.u.)
34. TGATGAGATTTGGTGGTGTGTTTTTTTTTGGCAATCATCCCGGAGTCACCTAGTGCAG  9730 fluorescence intensity (a.u.)
35. GTATTTCTATTACCTGCTGTATAACTTGCACATCCTTTTTCGGAGTCACCTAGTGCAG  10700 fluorescence intensity (a.u.)
36. CTGGGGTTGGCCTGGGCTGATATATGTTTGGCGCTCAAAACGGAGTCACCTAGTGCAG  11100 fluorescence intensity (a.u.)
37. CCCTCGCCGCCGCCCCGCCTCTTCCTCGCGCCGCCACCGCCGGAGTCACCTAGTGCAG  11100 fluorescence intensity (a.u.)
38. ACTCCATCTGTTTCACGACGTTTTGAGTTTGGTCAAAGTCCGGAGTCACCTAGTGCAG  11400 fluorescence intensity (a.u.)
39. CTGCTGGGCCTCTTCTTCGTGTTGACTGTGATCCGAGTATCGGAGTCACCTAGTGCAG  11700 fluorescence intensity (a.u.)
40. AGTGTTTTTACTTTTTTTTTTCTAAGTTGTCTTTTCTTCCCGGAGTCACCTAGTGCAG  12400 fluorescence intensity (a.u.)
41. TTGGACACAAGGGGTGGTGGTGCAGTTGGCTAGCGCGTAGCGGAGTCACCTAGTGCAG  13100 fluorescence intensity (a.u.)
42. TGGGTGGGGATGAGTTCTTGATTTGCCGCCGCCACCGCACCGGAGTCACCTAGTGCAG  13900 fluorescence intensity (a.u.)
